# About 7,700 (2.3%) of roughly 330,000 compounds were called active. Inconclusive means that the source gave no clear call. Such entries were picked first, then a sample of the others. Calls come from the whole dose curve; as a rule, active = well fitted inhibition curve with a large enough effect; inconclusive = small, poorly fitted or top-dose-only effect, or effect the other way; inactive = flat fitted curve, though single readings scatter. Potencies beside an inconclusive call are fits to weak or partial responses and may not hold up.
# Assay: qHTS screen for small molecules that inhibit ELG1-dependent DNA repair in human embryonic kidney (HEK293T) cells expressing luciferase-tagged ELG1; note: nearly all actives have a fitted effect of over 55% in size
# Conditions: HEK293T ELG1-luciferase reporter, luminescence, 16 h, DNA damage induced by 5-fluorouridine; series mostly up to 46.1 µM
# Method in brief: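 HEK293T cells expressing luciferase-tagged ELG1 (2,000/well) received 5-Fluorouridine plus compound or DMSO for 16 hr at 37 °C. Luciferase was read by ONE-Glo luminescence after 30 min at room temperature.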
# Potency is the fitted concentration of half-maximal effect.
row,Structure (SMILES),Potency
1,COc1cccc(C2=NOC(C(=O)Nc3cccc(C(C)=O)c3)C2)c1OC (centres undefined),"inconclusive: 18.4 µM [inhibitor, single point]"
2,Nc1nc(Cl)cc(N2CCCC2)n1,"inconclusive: 0.651 µM [activator, single point]"
3,COc1cc(NS(=O)(=O)c2ccc(OC)c(C)c2C)c(OC)cc1Cl,"inconclusive: 6.51 µM [inhibitor, partial curve, poor fit]"
4,O=C(NCCOc1ccc(Cl)cc1)c1ccc2c(c1)OCCO2,"inconclusive: 5.17 µM [activator, partial curve]"
5,Cn1ncc2c(N3CCC(Cc4ccccc4)CC3)ncnc21,"inconclusive: 20.6 µM [inhibitor, partial curve]"
6,Cc1ccc(NC(=S)NC(=O)c2ccc(-c3ccc(Cl)cc3)o2)c(O)c1,"inconclusive: 16.4 µM [activator, partial curve, poor fit]"
7,CCc1ccc(CN2CCCC(CNC(=O)c3cccc(OC)c3OC)C2)cc1 (centres undefined),inactive
8,COc1ccc(Br)cc1CN(C)C(=O)c1ccc2c(c1)NC(=O)C(C)S2 (centres undefined),"inconclusive: 25.9 µM [inhibitor, partial curve]"
9,CN1C(=O)C(=O)/C(=C(/O)c2ccc(Br)cc2)C1c1ccc(F)cc1 (centres undefined),inactive
10,CCN(CC)S(=O)(=O)c1ccc2c(c1)N(CC(=O)NCCc1ccc(S(N)(=O)=O)cc1)C(=O)CO2,"inconclusive: 6.51 µM [activator, full curve, poor fit]"
11,Cc1ccc(C(=O)Nc2ccccc2C(=O)N2CCOCC2)cc1[N+](=O)[O-],inactive
12,COc1ccc(S(=O)(=O)N(CC(=O)N2CCOCC2)c2ccc(F)cc2)cc1OC,inactive
13,CCC(C)NS(=O)(=O)c1ccc(OCC(=O)NCc2ccccn2)cc1 (centres undefined),inactive
14,O=C(Nc1ccc2cn[nH]c2c1)c1ccc(Cl)c(S(=O)(=O)N2CCOCC2)c1,"inconclusive: 32.6 µM [inhibitor, single point]"
15,Cc1ccc(SCC2(O)CCN(C(=O)c3ccc(Cl)cc3)CC2)cc1,inactive
16,Cc1cc(F)c(F)c(C(=O)N2CCCCC2C)c1Cl (centres undefined),"inconclusive: 14.6 µM [activator, partial curve]"
17,CC(C)Cc1cc(C(=O)NCc2ccco2)no1,"inconclusive: 16.4 µM [activator, partial curve]"
18,COc1ccc(NC(=O)CCC(=O)N2CCOCC2)c([N+](=O)[O-])c1,inactive
19,Cc1ccc(S(=O)(=O)CCC(=O)Nc2nnc(-c3ccco3)o2)cc1,inactive
20,O=C(COc1ccccc1)Nc1nnc(-c2ccc(F)cc2)o1,inactive
21,COc1cc(C)c(NC(=O)Cc2ccsc2)cc1OC,inactive
22,Cc1cc(C)c2c(N)c(C(=O)NN)sc2n1,"inconclusive: 16.4 µM [activator, single point]"
23,O=C(NCC1CCCCC1)c1ccc([N+](=O)[O-])cc1,"inconclusive: 7.3 µM [activator, partial curve, poor fit]"
24,Cc1cc2c(C)nc(-c3ccccc3)nc2o1,"inconclusive: 18.4 µM [activator, partial curve]"
25,COc1ccccc1C(C[N+](=O)[O-])c1c[nH]c2ccccc12 (centres undefined),"inconclusive: 32.6 µM [inhibitor, single point]"

# Looked up above.
# For Potency, Cc1cc(C)c2c(N)c(C(=O)NN)sc2n1 is listed with inconclusive: 16.4 µM [activator, single point]
# For Potency, Cc1ccc(SCC2(O)CCN(C(=O)c3ccc(Cl)cc3)CC2)cc1 is listed with inactive
# For Potency, O=C(NCCOc1ccc(Cl)cc1)c1ccc2c(c1)OCCO2 is listed with inconclusive: 5.17 µM [activator, partial curve]
# For Potency, COc1ccc(Br)cc1CN(C)C(=O)c1ccc2c(c1)NC(=O)C(C)S2 (centres undefined) is listed with inconclusive: 25.9 µM [inhibitor, partial curve]
# For Potency, CCN(CC)S(=O)(=O)c1ccc2c(c1)N(CC(=O)NCCc1ccc(S(N)(=O)=O)cc1)C(=O)CO2 is listed with inconclusive: 6.51 µM [activator, full curve, poor fit]
# For Potency, Cc1cc(F)c(F)c(C(=O)N2CCCCC2C)c1Cl (centres undefined) is listed with inconclusive: 14.6 µM [activator, partial curve]

# (continued)

row,Structure (SMILES),Potency
1,CC(=O)NC(c1ccccc1)c1cc(Cl)c2cccnc2c1O (centres undefined),"inconclusive: 25.9 µM [inhibitor, single point]"
2,COc1cc(Cl)ccc1NC(=O)COc1ccccc1C(=O)N1CCN(c2ccc(O)cc2)CC1,active: 13 µM
3,CCOc1ccc(/C=N\NC(=O)CC(=O)NCCc2ccccc2)cc1,inactive
4,COc1ccccc1CO/N=C/NC(=O)c1c(OC)ccnc1Oc1ccc(F)cc1,"inconclusive: 11.6 µM [inhibitor, partial curve]"
5,COc1ccc(NC(=O)CN2C(=O)COc3ccc(C)cc32)c(OC)c1,inactive
6,CCCN(CC(=O)Nc1ccccc1C)C(=O)C1CCN(c2ncnc3sc(C)c(C)c23)CC1,active: 9.2 µM
7,Cc1nn(Cc2ccc(Cl)cc2)c(C)c1NC(=O)CSc1n[nH]c(C)c1[N+](=O)[O-],"inconclusive: 20.6 µM [inhibitor, single point]"
8,Nc1cc(N)nc(SCCOc2ccccc2F)n1,"inconclusive: 14.6 µM [activator, partial curve]"
9,COC(=O)C1CCN(C(=O)/C=C/c2ccc3c(c2)OCO3)CC1,"inconclusive: 7.94 µM [activator, partial curve]"
10,Cc1ccc(CNC(=O)Cc2ccc(-c3ccccc3)cc2)cc1,inactive
11,N#CC(C(=O)C12CC3CC(CC(C3)C1)C2)c1nc2ccccc2[nH]1 (centres undefined),inactive
12,CC(C)n1ncc2c(C(=O)O)cc(C3CC3)nc21,inactive
13,Nc1cc(Cl)ccc1Oc1ccc2ccccc2c1,"inconclusive: 18.4 µM [activator, single point]"
14,Cc1ccccc1NC(=O)C1(NC(=O)c2cccc(N3C(=O)CSC3c3ccccc3)c2)CCCCC1 (centres undefined),"inconclusive: 20.6 µM [inhibitor, single point]"
15,CCCC(=O)OC/C(O)=C(\C#N)c1nc2ccccc2[nH]1,"inconclusive: 29.1 µM [activator, single point]"
16,CSCCC(=O)N1CCC(n2nccc2NC(=O)CCCc2ccccc2)CC1,inactive
17,O=c1[nH]cc(S(=O)(=O)N2CCCc3ccccc32)c(=O)[nH]1,inactive
18,O=C1CC(c2ccc(OCCCCCOc3ccc(C4CC(=O)NC4=O)cc3)cc2)C(=O)N1 (centres undefined),"inconclusive: 20.6 µM [inhibitor, single point]"
19,Cc1cccc(N2CCN(C(=O)Cn3c(=O)[nH]c4ccsc4c3=O)CC2C)c1 (centres undefined),"inconclusive: 25.9 µM [inhibitor, partial curve]"
20,Fc1ccccc1OCCSc1nnnn1-c1ccccc1,"inconclusive: 2.59 µM [activator, partial curve]"
21,FC(F)(F)c1cccc(/C=N/NC(=S)NC2CCCCC2)c1,inactive
22,COc1ccccc1N(CC1CO1)S(=O)(=O)c1ccc(C)cc1 (centres undefined),inactive
23,COc1ccc(-c2cc(C)no2)cc1S(=O)(=O)NCc1cccc(C)c1,inactive
24,CCOC(=O)Cc1csc(NC(=S)NC(=O)c2ccccc2Br)n1,"inconclusive: 18.4 µM [activator, partial curve, poor fit]"
25,COC(=O)c1cc(NC(=O)Cc2coc3cc(OC)ccc23)cc(C(=O)OC)c1,active: 16.4 µM

row,Structure (SMILES),Potency
1,CN(C)c1ccc(CN(C(=O)/C=C/c2ccccc2Cl)C2CCS(=O)(=O)C2)cc1 (centres undefined),inactive
2,CCCc1cc(=O)[nH]c(SCC(=O)N2c3ccccc3NC(=O)C2(C)C)n1,inactive
3,CC1(C)CC(NC(=O)COc2ccccc2Cl)CC(C)(C)N1,"inconclusive: 23.1 µM [activator, partial curve]"
4,O=C(CSc1nc(Cc2ccccc2)nc2ccccc12)c1ccc2c(c1)OCCO2,"inconclusive: 23.1 µM [inhibitor, single point]"
5,Cc1cc(C(=O)CSc2nnnn2C)c(C)n1C1CC1,"inconclusive: 14.6 µM [activator, partial curve]"
6,Cc1ccc(Sc2ncccc2C(=O)NCc2cc([N+](=O)[O-])ccc2O)c(C)c1,"inconclusive: 9.2 µM [activator, partial curve]"
7,CC(C)CCOc1cccc(OCC(=O)Nc2ccncc2)c1,"inconclusive: 2.31 µM [inhibitor, partial curve, poor fit]"
8,O=C(Nc1ccc(NC(=O)c2ccccc2F)cc1)c1cccs1,"inconclusive: 5.17 µM [activator, full curve]"
9,O=C(COC(=O)/C=C/C(=O)N1CCN(c2ccccc2)CC1)NCc1ccc(F)cc1,inactive
10,Cc1c2c(nc3ccccc13)CCC(C)C2 (centres undefined),inactive
11,O=C(Nc1cccc(-n2cccn2)c1)C1CCCN(Cc2cc3ccccc3[nH]2)C1 (centres undefined),"inconclusive: 25.9 µM [inhibitor, single point]"
12,CCN(CC(=O)Nc1ccc(NC(C)=O)cc1)C(=O)c1ccccc1SCC(=O)N1CCCC1,inactive
13,N#Cc1c(C(F)(F)F)cc(-c2ccc(F)cc2)nc1SCC(=O)O,inactive
14,Nc1ccc(-c2ccc(N)c([N+](=O)[O-])c2)cc1[N+](=O)[O-],inactive
15,CN(CC(=O)Nc1ccc(F)c(F)c1F)C(=O)C1CCCCC1,inactive
16,COc1ccc(-c2cc(C(=O)NCCc3ccc(S(N)(=O)=O)cc3)c3ccccc3n2)cc1,"inconclusive: 29.1 µM [inhibitor, single point]"
17,CCN1CCN(c2ccc(NC(=O)c3cnccn3)cc2)CC1,"inconclusive: 20.6 µM [activator, partial curve]"
18,CCOc1ccc2nc(NC(=O)CCn3cccc3)sc2c1,"inconclusive: 32.6 µM [activator, single point]"
19,Cc1cc(OC(=O)c2ccc(C)c(C)c2)c([N+](=O)[O-])c(=O)[nH]1,inactive
20,Cc1cc(C2=NNC(=Nc3ccc(S(=O)(=O)N4CCOCC4)cc3)SC2)c(C)n1CC1CCCO1 (centres undefined),"inconclusive: 2.91 µM [inhibitor, full curve]"
21,Cc1cnc(C(=O)NCC(=O)Nc2ccccc2Br)cn1,"inconclusive: 32.6 µM [activator, partial curve, poor fit]"
22,COC(=O)c1cc(NC(=O)CSC2=NCCS2)cc(C(=O)OC)c1,"inconclusive: 29.1 µM [inhibitor, single point]"
23,Cc1ccc2oc(-c3ccccc3)nc2c1,"inconclusive: 7.31 µM [activator, partial curve]"
24,O=C(O)CCCNC(=O)c1cncc(O)c1,"inconclusive: 23.1 µM [activator, single point]"

# Source: PubChem BioAssay AID504467 (National Center for Advancing Translational Sciences (NCATS), 2011)
